The name of at least one read-out is uncertain.
System: penicillin susceptible and resistant pneumococcal strains (2 quinolone resistant)
Test: Time-kill testing of 12 pneumococcal strains
Format: cell-based, Streptococcus pneumoniae
Conditions: of 12 strains (macrolides 7)
Method in brief: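 Pneumococci at 5×10^5–5×10^6 cfu/ml were exposed to doubling antibiotic concentrations in cation-adjusted Mueller-Hinton broth + 5% lysed horse blood at 35 °C with shaking. Viable counts (detection limit 300 cfu/ml) were taken at 0, 3, 6, 12 and 24 h.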

SMILES: O=C(O)c1cn(C2CC2)c2cc(N3CCNCC3)c(F)cc2c1=O [Ciprofloxacin, ciprofloxacin]
- No. strains −1 Log10 cfu/ml lower than 0 h (3 h, 0.25 × MIC): 0 No. strains
- No. strains −2 Log10 cfu/ml lower than 0 h (3 h, 0.25 × MIC): 0 No. strains
- No. strains −3 Log10 cfu/ml lower than 0 h (3 h, 0.25 × MIC): 0 No. strains
- No. strains −1 Log10 cfu/ml lower than 0 h (3 h, 0.5 × MIC): 0 No. strains
- No. strains −2 Log10 cfu/ml lower than 0 h (3 h, 0.5 × MIC): 0 No. strains
- No. strains −3 Log10 cfu/ml lower than 0 h (3 h, 0.5 × MIC): 0 No. strains
- No. strains −1 Log10 cfu/ml lower than 0 h (3 h, 2 × MIC): 9 No. strains
- No. strains −2 Log10 cfu/ml lower than 0 h (3 h, 2 × MIC): 4 No. strains
- No. strains −3 Log10 cfu/ml lower than 0 h (3 h, 2 × MIC): 0 No. strains
- No. strains −1 Log10 cfu/ml lower than 0 h (3 h, 4 × MIC): 9 No. strains
- No. strains −2 Log10 cfu/ml lower than 0 h (3 h, 4 × MIC): 6 No. strains
- No. strains −3 Log10 cfu/ml lower than 0 h (3 h, 4 × MIC): 1 No. strains
- No. strains −1 Log10 cfu/ml lower than 0 h (3 h, 8 × MIC): 10 No. strains
- No. strains −2 Log10 cfu/ml lower than 0 h (3 h, 8 × MIC): 8 No. strains
- No. strains −3 Log10 cfu/ml lower than 0 h (3 h, 8 × MIC): 2 No. strains
- No. strains −1 Log10 cfu/ml lower than 0 h (3 h, MIC): 4 No. strains
- No. strains −2 Log10 cfu/ml lower than 0 h (3 h, MIC): 0 No. strains
- No. strains −3 Log10 cfu/ml lower than 0 h (3 h, MIC): 0 No. strains
- No. strains −1 Log10 cfu/ml lower than 0 h (6 h, 0.25 × MIC): 0 No. strains
- No. strains −2 Log10 cfu/ml lower than 0 h (6 h, 0.25 × MIC): 0 No. strains
- No. strains −3 Log10 cfu/ml lower than 0 h (6 h, 0.25 × MIC): 0 No. strains
- No. strains −1 Log10 cfu/ml lower than 0 h (6 h, 0.5 × MIC): 1 No. strains
- No. strains −2 Log10 cfu/ml lower than 0 h (6 h, 0.5 × MIC): 1 No. strains
- No. strains −3 Log10 cfu/ml lower than 0 h (6 h, 0.5 × MIC): 0 No. strains
- No. strains −1 Log10 cfu/ml lower than 0 h (6 h, 2 × MIC): 12 No. strains
- No. strains −2 Log10 cfu/ml lower than 0 h (6 h, 2 × MIC): 8 No. strains
- No. strains −3 Log10 cfu/ml lower than 0 h (6 h, 2 × MIC): 2 No. strains
- No. strains −1 Log10 cfu/ml lower than 0 h (6 h, 4 × MIC): 12 No. strains
- No. strains −2 Log10 cfu/ml lower than 0 h (6 h, 4 × MIC): 10 No. strains
- No. strains −3 Log10 cfu/ml lower than 0 h (6 h, 4 × MIC): 5 No. strains
- No. strains −1 Log10 cfu/ml lower than 0 h (6 h, 8 × MIC): 12 No. strains
- No. strains −2 Log10 cfu/ml lower than 0 h (6 h, 8 × MIC): 11 No. strains
- No. strains −3 Log10 cfu/ml lower than 0 h (6 h, 8 × MIC): 6 No. strains
- No. strains −1 Log10 cfu/ml lower than 0 h (6 h, MIC): 8 No. strains
- No. strains −2 Log10 cfu/ml lower than 0 h (6 h, MIC): 3 No. strains
- No. strains −3 Log10 cfu/ml lower than 0 h (6 h, MIC): 0 No. strains
- No. strains −1 Log10 cfu/ml lower than 0 h (12 h, 0.25 × MIC): 0 No. strains
- No. strains −2 Log10 cfu/ml lower than 0 h (12 h, 0.25 × MIC): 0 No. strains
- No. strains −3 Log10 cfu/ml lower than 0 h (12 h, 0.25 × MIC): 0 No. strains
- No. strains −1 Log10 cfu/ml lower than 0 h (12 h, 0.5 × MIC): 2 No. strains
- No. strains −2 Log10 cfu/ml lower than 0 h (12 h, 0.5 × MIC): 1 No. strains
- No. strains −3 Log10 cfu/ml lower than 0 h (12 h, 0.5 × MIC): 0 No. strains
- No. strains −1 Log10 cfu/ml lower than 0 h (12 h, 2 × MIC): 12 No. strains
- No. strains −2 Log10 cfu/ml lower than 0 h (12 h, 2 × MIC): 12 No. strains
- No. strains −3 Log10 cfu/ml lower than 0 h (12 h, 2 × MIC): 6 No. strains
- No. strains −1 Log10 cfu/ml lower than 0 h (12 h, 4 × MIC): 12 No. strains
- No. strains −2 Log10 cfu/ml lower than 0 h (12 h, 4 × MIC): 12 No. strains
- No. strains −3 Log10 cfu/ml lower than 0 h (12 h, 4 × MIC): 10 No. strains
- No. strains −1 Log10 cfu/ml lower than 0 h (12 h, 8 × MIC): 12 No. strains
- No. strains −2 Log10 cfu/ml lower than 0 h (12 h, 8 × MIC): 12 No. strains
- No. strains −3 Log10 cfu/ml lower than 0 h (12 h, 8 × MIC): 10 No. strains
- No. strains −1 Log10 cfu/ml lower than 0 h (12 h, MIC): 10 No. strains
- No. strains −2 Log10 cfu/ml lower than 0 h (12 h, MIC): 9 No. strains
- No. strains −3 Log10 cfu/ml lower than 0 h (12 h, MIC): 3 No. strains
- No. strains −1 Log10 cfu/ml lower than 0 h (24 h, 0.25 × MIC): 0 No. strains
- No. strains −2 Log10 cfu/ml lower than 0 h (24 h, 0.25 × MIC): 0 No. strains
- No. strains −3 Log10 cfu/ml lower than 0 h (24 h, 0.25 × MIC): 0 No. strains
- No. strains −1 Log10 cfu/ml lower than 0 h (24 h, 0.5 × MIC): 2 No. strains
- No. strains −2 Log10 cfu/ml lower than 0 h (24 h, 0.5 × MIC): 1 No. strains
- No. strains −3 Log10 cfu/ml lower than 0 h (24 h, 0.5 × MIC): 0 No. strains
- No. strains −1 Log10 cfu/ml lower than 0 h (24 h, 2 × MIC): 12 No. strains
- No. strains −2 Log10 cfu/ml lower than 0 h (24 h, 2 × MIC): 12 No. strains
- No. strains −3 Log10 cfu/ml lower than 0 h (24 h, 2 × MIC): 11 No. strains
- No. strains −1 Log10 cfu/ml lower than 0 h (24 h, 4 × MIC): 12 No. strains
- No. strains −2 Log10 cfu/ml lower than 0 h (24 h, 4 × MIC): 12 No. strains
- No. strains −3 Log10 cfu/ml lower than 0 h (24 h, 4 × MIC): 12 No. strains
- No. strains −1 Log10 cfu/ml lower than 0 h (24 h, 8 × MIC): 12 No. strains
- No. strains −2 Log10 cfu/ml lower than 0 h (24 h, 8 × MIC): 12 No. strains
- No. strains −3 Log10 cfu/ml lower than 0 h (24 h, 8 × MIC): 12 No. strains
- No. strains −1 Log10 cfu/ml lower than 0 h (24 h, MIC): 11 No. strains
- No. strains −2 Log10 cfu/ml lower than 0 h (24 h, MIC): 10 No. strains
- No. strains −3 Log10 cfu/ml lower than 0 h (24 h, MIC): 6 No. strains
